Test results published in article doi:10.1101/2022.04.12.488072.
No constants are given. Whether binding was seen depends on the method and setting. In cells and extracts the contact can be indirect. A yes stands for co-enrichment or nearness to the bait. Other partners may have been found. Blank lines part the entries; values can stand above or below the binder they belong to.

Biological target: SME1 fused to a GS^rhino TAP tag (Arabidopsis thaliana)
Assay: affinity purification with mass spectrometry

B2: AT4G18465, DEAH box RNA helicase with best homology to human DHX35 (protein, UniProt F4JRJ6 1-695)
chain: MAFWKPGTEKPRFEEDGEGGIVFMSNNLASSSSSSYGYANIEKQRQRLPVYKYRTEILYLVENHATTIIVGETGSGKTTQIPQYLKEAGWAEGGRVIACTQPRRLAVQAVSARVAEEMGVNLGEEVGYTIRFEDHTTSGVTSVKFLTDGVLIREMMEDPLLTKYSVIMIDEAHERSISTDILLGLLKKIQRRRPELRLIISSATIEAKTMSNFFNSSKKRHAPEGSTPGPKLEPAILSVEGRGFSVKIHYVEEPVSDYIRSVVSTILLINEREPPGDVLVFLTGQEDIETAIKLLEEEAHSNQKNSSGLLPLPLYSGLSRSEQELIFTPTPRGKRKVILSTNIAETSLTLEGVVYVIDSGFSKQKFYNPISDIESLVVAPISKASARQRSGRAGRVRPGKCYRLYTEDYFLNQMPGEGIPEMQRSNLVSTVIQLKALGIDNILGFDWPAPPSSEAMIRALEVLYSLQILDDDAKLTSPTGFQVAELPLDPMISKMILASSELGCSHEIITIAAVLSVQSVWIIARGVQKEQDEAKLRFAAAEGDHVTFLNVYKGFLESKKPTQWCYKNFLNYQSMKKVVEIRDQLKRIARRLGITLKSCDGDMEAVRKAVTAGFFANACRLEPHSNGVYKTIRGSEEVYIHPSSVLFRVNPKWVVYQSIVSTERQYMRNVVTINPSWLTEVAPHFYQNRQNAMSF
binding: binds

B4: cystatin protease inhibitor CYS6 (protein, UniProt Q8H0X6 25-234)
chain: SDLGFCNEEMALVGGVGDVPANQNSGEVESLARFAVDEHNKKENALLEFARVVKAKEQVVAGTLHHLTLEILEAGQKKLYEAKVWVKPWLNFKELQEFKPASDAPAITSSDLGCKQGEHESGWREVPGDDPEVKHVAEQAVKTIQQRSNSLFPYELLEVVHAKAEVTGEAAKYNMLLKLKRGEKEEKFKVEVHKNHEGALHLNHAEQHHD
binding: binds

The next lines start with the values.

binding: binds
B1: ICLN (protein, UniProt Q9LVA7 1-229)
chain: MVAGLRDFTLRTEDGSGKPVLDESNGEELMHVQTSVAVALGNRPIESPGTLYITSRKLIWLSDVDMAKGYAVDFLSISLHAVSRDPEAYSSPCIYTQIEVEEDEDDESDSESTEVLDLSKIREMRLVPSDSTQLETLFDVFCECAELNPEPVQEEEEESGHNWVFSADQMDVRGGDDDAEWQISQSPTSVIGHSNGDEGLNQPMLELQINDQRFEDAEEMVHESETKDH

binding: binds
B3: cystatin protease inhibitor CYS1 (protein, UniProt Q945Q1 1-101)
chain: MADQQAGTIVGGVRDIDANANDLQVESLARFAVDEHNKNENLTLEYKRLLGAKTQVVAGTMHHLTVEVADGETNKVYEAKVLEKAWENLKQLESFNHLHDV

binding: binds
B5: cystatin protease inhibitor CYS4 (protein, UniProt Q84WT8 23-117)
chain: LGGGGGLGSRKPIKNVSDPDVVAVAKYAIEEHNKESKEKLVFVKVVEGTTQVVSGTKYDLKIAAKDGGGKIKNYEAVVVEKLWLHSKSLESFKAL
